Measured values from the supplement of paper PMC4604168 (melanoma cell lines).
Some of the results follow. Many values rest on one well or one pass, so single values are uncertain.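 Cells were imaged in 1,536-well plates, and nuclei stained with an antibody against cleaved PARP were counted against all DNA-stained nuclei to give the apoptosis fraction. Screening doses were chosen to leave most cells alive, and resting and induced cleaved-PARP levels differ strongly between cell lines.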

How the values were obtained:
Assay in all cases: cleaved PARP positive nuclei fraction relative to DMSO control; melanoma cells; higher = more apoptosis
Settings in all cases: library dose: low library concentration; 72 h
MeWo = tested on: MeWo
RPMI7951 = tested on: RPMI7951
RVH-421 = tested on: RVH-421
SkMel28 = tested on: SkMel28
SkMel30 = tested on: SkMel30
UACC62 = tested on: UACC62
SkMel5 = tested on: SkMel5
UACC257 = tested on: UACC257

Row | SMILES | cleaved PARP positive nuclei fraction (MeWo) [%] | cleaved PARP positive nuclei fraction (RPMI7951) [%] | cleaved PARP positive nuclei fraction (RVH-421) [%] | cleaved PARP positive nuclei fraction (SkMel28) [%] | cleaved PARP positive nuclei fraction (SkMel30) [%] | cleaved PARP positive nuclei fraction (UACC62) [%] | cleaved PARP positive nuclei fraction (SkMel5) [%] | cleaved PARP positive nuclei fraction (UACC257) [%]
1 | C[C@]12O[C@H](C[C@]1(O)CO)n1c3ccccc3c3c4c(c5c6ccccc6n2c5c31)CNC4=O [Lestaurtinib] + Cn1c(Nc2ccc(C(F)(F)F)cc2)nc2cc(Oc3ccnc(-c4ncc(C(F)(F)F)[nH]4)c3)ccc21 [CHIR265] (first compound 0.004 µM, partner dose 0.08 µM) | 138 | 57.9 | 174 | 97.3 | 199 | 129 | – | –
2 | O=C(CCCCCCC(=O)Nc1ccccc1)NO [vorinostat] + O=C(Oc1ccc([N+](=O)[O-])cc1)N1CCC(C(O)(c2ccc3c(c2)OCO3)c2ccc3c(c2)OCO3)CC1 [JZL184] (first compound 0.08 µM, partner dose 1 µM) | 222 | 39.7 | 15 | 161 | 41.2 | 515 | 33.5 | 176
3 | Cn1cc(C2=C(c3cn(C4CCN(Cc5ccccn5)CC4)c4ccccc34)C(=O)NC2=O)c2ccccc21 [Enzastaurin] + Cc1cc([N+](=O)[O-])ccc1NS(=O)(=O)c1cc(Cl)ccc1Cl [FH535] (first compound 0.8 µM, partner dose 1 µM) | 81.6 | 211 | 100 | 108 | 40.9 | 97.5 | 192 | 146
